Reference: patent US8093232B2, “2α-methyl-19-nor-(20S)-1α-hydroxy-bishomopregnacalciferol and its uses” (Wisconsin Alumni Research Foundation, priority 2004, dated 2012)

System: 24-hydroxylase (24 Ohase) gene promoter
Test: In vitro transcription assay (24-hydroxylase promoter luciferase reporter in ROS 17/2.8 bone cells)
Format: cell-based
Conditions: ROS 17/2.8 cells, 24-OHase promoter-luciferase, 16 h; FIG. 3; read-out: EC50, transcriptional activity in bone cells
Method: In Vitro Transcription Assay
Transcription activity was measured in ROS 17/2.8 (bone) cells that were stably transfected with a 24-hydroxylase (24 Ohase) gene promoter upstream of a luciferase reporter gene (Arbour et al., 1998). Cells were given a range of doses. Sixteen hours after dosing the cells were harvested and luciferase activities were measured using a luminometer.
RLU=relative luciferase units.

## C=C1/C(=C\C=C2/CCC[C@]3(C)[C@@H]([C@H](C)CCCC(C)(C)O)CC[C@@H]23)C[C@@H](O)C[C@@H]1O [1,25(OH)2D3, 1α,25-dihydroxyvitamin D3, reference compound]
  EC50: 2.9 nM
